Experimental data: the supplement of paper PMC11006884
This is a selection; strong and weak results do not stand in their true shares. This is a noisy data set.

The chains behind the UniProt entries cited, without tags or fusion partners. Where a name states a change or a piece, a line headed by the entry shows the natural chain unless it says otherwise.
UniProt Q8TEJ3: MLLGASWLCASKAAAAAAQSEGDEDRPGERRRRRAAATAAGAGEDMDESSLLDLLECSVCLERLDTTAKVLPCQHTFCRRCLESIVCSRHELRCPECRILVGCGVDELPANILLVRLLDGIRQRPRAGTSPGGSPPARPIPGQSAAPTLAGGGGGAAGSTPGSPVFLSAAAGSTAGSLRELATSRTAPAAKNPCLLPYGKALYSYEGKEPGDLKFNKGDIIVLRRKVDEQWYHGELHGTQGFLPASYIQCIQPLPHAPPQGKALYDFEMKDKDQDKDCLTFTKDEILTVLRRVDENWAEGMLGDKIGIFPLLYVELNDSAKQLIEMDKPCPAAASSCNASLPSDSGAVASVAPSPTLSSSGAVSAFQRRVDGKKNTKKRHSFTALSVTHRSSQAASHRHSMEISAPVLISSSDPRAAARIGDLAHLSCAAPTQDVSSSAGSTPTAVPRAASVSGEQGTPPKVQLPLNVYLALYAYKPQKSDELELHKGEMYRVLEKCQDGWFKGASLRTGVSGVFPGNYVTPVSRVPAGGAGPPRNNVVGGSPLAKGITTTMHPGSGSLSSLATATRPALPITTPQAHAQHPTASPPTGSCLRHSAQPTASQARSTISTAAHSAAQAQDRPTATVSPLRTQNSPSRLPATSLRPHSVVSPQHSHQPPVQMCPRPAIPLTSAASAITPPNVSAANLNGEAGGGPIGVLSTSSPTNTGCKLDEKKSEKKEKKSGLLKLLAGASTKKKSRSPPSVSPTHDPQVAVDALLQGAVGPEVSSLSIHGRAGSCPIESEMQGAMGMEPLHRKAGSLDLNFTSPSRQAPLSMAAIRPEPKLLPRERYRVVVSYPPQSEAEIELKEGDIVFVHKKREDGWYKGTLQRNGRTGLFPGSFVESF
UniProt Q8TAG9: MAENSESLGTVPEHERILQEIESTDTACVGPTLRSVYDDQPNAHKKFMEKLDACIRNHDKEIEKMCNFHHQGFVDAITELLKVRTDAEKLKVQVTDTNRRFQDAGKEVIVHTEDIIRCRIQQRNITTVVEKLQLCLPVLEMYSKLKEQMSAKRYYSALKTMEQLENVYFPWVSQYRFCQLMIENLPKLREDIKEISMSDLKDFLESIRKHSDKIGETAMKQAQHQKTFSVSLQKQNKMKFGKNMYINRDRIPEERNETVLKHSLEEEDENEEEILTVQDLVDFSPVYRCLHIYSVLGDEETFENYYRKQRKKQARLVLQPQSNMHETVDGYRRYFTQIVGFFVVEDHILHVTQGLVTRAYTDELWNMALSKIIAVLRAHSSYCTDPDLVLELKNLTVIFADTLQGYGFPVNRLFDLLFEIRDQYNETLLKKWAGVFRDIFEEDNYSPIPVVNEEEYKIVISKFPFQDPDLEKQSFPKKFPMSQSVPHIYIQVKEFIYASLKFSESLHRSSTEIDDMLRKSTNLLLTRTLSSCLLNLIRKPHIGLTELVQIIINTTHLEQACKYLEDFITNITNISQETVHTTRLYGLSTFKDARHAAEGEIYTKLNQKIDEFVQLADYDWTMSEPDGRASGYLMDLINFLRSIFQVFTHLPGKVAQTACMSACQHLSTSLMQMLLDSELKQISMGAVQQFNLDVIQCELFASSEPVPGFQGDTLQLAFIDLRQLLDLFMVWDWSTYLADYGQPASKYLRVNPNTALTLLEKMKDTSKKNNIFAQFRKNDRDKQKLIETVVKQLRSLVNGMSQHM
UniProt Q8WUD1: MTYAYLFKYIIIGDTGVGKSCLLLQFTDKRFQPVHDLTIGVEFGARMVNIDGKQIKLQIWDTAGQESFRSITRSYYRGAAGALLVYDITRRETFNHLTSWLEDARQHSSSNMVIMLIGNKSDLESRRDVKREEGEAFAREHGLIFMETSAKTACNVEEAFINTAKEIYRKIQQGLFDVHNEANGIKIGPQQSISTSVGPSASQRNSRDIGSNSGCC
UniProt Q8TAT6: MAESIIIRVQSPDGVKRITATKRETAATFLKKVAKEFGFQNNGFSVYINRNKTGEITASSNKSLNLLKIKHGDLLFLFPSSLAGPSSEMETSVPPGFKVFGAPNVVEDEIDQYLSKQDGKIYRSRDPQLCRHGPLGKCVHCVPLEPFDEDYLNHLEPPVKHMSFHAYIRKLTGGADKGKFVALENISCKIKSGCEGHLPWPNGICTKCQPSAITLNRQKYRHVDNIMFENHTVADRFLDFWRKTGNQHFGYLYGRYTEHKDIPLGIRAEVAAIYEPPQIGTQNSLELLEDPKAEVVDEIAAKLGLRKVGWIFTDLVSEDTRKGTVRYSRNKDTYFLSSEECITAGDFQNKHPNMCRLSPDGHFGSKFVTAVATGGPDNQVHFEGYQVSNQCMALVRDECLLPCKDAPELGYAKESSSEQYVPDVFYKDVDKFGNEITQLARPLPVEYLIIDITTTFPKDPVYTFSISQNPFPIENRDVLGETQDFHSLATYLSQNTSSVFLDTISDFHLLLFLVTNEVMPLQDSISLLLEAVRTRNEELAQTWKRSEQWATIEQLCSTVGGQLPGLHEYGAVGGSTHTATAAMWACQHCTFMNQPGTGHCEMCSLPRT
UniProt Q8N3Z6: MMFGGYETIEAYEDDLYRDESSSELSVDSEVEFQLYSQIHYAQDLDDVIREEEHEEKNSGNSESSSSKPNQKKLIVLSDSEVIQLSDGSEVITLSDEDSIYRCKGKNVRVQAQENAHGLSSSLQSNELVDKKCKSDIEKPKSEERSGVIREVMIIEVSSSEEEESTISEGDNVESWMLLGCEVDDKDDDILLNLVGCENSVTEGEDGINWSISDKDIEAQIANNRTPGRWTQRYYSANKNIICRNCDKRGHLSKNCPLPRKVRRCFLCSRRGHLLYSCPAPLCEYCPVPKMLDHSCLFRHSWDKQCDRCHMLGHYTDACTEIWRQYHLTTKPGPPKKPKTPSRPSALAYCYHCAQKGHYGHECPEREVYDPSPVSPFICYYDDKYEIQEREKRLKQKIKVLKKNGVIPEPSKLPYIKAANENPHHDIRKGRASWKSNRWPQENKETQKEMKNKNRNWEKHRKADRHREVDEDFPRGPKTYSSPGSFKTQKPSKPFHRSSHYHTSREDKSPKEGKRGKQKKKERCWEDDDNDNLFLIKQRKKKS
UniProt Q8WU20: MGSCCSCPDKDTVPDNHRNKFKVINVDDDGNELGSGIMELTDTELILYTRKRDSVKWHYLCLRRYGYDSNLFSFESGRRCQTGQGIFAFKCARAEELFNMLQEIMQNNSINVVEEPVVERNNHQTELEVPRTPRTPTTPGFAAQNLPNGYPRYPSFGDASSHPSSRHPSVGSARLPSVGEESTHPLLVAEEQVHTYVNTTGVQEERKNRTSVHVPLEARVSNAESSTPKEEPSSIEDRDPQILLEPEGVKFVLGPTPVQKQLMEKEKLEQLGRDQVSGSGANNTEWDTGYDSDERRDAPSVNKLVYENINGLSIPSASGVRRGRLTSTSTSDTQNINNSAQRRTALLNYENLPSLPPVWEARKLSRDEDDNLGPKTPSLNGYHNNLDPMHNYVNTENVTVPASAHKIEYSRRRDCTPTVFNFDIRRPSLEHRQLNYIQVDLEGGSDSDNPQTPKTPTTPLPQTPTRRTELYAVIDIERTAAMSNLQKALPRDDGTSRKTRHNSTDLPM
UniProt Q8NEZ3: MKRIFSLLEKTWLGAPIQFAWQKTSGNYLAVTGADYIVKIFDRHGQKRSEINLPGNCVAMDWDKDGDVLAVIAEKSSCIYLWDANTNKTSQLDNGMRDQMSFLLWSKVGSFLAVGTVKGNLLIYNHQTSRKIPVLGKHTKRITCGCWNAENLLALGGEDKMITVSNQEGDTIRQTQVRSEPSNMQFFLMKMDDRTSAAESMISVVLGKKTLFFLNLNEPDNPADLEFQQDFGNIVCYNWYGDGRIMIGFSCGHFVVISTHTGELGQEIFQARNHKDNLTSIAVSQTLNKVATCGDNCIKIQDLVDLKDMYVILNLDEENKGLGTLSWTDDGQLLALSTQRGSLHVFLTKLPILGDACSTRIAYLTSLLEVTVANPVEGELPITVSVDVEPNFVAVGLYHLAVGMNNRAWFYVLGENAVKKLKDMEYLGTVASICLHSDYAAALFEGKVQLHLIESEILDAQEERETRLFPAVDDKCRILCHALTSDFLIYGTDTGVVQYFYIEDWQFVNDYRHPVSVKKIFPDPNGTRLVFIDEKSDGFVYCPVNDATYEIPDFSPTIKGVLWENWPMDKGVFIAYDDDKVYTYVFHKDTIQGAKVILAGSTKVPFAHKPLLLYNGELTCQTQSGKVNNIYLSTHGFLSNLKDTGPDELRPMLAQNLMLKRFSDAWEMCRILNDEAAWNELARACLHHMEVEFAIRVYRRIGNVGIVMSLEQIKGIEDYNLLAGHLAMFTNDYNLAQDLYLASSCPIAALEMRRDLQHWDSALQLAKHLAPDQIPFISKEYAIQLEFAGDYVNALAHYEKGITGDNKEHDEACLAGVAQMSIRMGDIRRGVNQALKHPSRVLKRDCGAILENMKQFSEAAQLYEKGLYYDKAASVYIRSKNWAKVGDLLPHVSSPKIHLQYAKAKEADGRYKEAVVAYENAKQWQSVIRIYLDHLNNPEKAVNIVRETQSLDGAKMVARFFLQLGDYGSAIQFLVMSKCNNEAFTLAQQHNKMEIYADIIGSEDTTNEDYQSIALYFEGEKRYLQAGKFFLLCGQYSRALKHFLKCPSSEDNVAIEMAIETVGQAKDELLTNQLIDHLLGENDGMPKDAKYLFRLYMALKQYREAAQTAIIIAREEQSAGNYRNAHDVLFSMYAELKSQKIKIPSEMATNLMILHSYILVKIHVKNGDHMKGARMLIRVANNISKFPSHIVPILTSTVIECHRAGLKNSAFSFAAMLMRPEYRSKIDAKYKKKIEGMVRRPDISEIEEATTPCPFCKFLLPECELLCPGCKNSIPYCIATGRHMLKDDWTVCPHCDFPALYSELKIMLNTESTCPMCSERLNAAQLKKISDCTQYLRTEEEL
UniProt Q8N6R0: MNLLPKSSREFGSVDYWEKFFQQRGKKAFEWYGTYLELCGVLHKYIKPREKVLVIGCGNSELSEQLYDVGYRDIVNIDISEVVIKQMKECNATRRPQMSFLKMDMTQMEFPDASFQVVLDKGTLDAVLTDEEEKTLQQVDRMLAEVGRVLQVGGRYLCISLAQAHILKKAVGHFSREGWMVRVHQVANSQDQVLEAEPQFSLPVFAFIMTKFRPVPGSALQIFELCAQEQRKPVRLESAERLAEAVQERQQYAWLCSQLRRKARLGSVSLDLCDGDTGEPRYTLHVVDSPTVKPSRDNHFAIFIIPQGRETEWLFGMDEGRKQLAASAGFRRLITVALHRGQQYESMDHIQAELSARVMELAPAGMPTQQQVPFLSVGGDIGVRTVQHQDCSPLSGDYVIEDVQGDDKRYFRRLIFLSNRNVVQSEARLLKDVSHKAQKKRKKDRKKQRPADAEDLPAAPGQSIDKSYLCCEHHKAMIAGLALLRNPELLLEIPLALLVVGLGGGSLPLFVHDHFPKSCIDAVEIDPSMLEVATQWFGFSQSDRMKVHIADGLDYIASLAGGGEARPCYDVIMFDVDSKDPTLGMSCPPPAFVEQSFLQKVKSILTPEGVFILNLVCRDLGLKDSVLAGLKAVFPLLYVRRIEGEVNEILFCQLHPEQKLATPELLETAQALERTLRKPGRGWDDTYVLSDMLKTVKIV
UniProt Q8N954: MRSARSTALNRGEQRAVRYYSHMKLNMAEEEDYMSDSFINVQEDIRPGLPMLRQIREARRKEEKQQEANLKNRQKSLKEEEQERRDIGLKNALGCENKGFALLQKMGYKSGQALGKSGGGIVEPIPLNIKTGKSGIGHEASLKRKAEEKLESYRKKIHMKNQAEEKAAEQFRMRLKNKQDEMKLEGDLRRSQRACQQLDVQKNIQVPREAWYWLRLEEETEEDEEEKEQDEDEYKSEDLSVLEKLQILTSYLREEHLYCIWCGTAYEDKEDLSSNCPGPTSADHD
UniProt Q8TDN6: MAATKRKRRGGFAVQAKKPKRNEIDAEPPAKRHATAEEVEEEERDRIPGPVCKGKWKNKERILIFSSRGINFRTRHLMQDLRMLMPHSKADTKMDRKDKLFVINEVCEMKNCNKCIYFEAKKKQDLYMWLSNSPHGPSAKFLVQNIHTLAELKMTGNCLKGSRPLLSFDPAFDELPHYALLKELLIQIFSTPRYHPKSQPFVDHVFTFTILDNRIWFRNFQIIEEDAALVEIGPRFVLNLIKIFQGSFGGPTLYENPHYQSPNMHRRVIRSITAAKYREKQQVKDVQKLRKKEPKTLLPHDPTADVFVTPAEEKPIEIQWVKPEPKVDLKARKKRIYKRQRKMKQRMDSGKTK

Compound: COC(=O)/C=C/c1ccccc1 [methyl cinnamate]
Assay: log2 ratio of iodoacetamide-alkyne labeling of the cysteine site, DMSO over compound (competition); higher = stronger covalent engagement of the cysteine by the compound, active = 1 or more
Settings: 500 µM; treatment time 1 h; system: HEK293T cell lysate
How it was run: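 HEK293T lysate (2 mg/mL) was treated with DMSO or electrophile (500 µM, 1 h, ambient temperature), then iodoacetamide alkyne (1 h), clicked to sCIP-TMT reagents, pooled, trypsin-digested overnight at 37 °C, streptavidin-enriched and acid-eluted. Peptides were run on Orbitrap Eclipse LC-MS/MS with FAIMS and quantified in FragPipe. The log2 competition ratio per cysteine is mean control-channel over mean compound-channel reporter intensity. Duplicate channels and three replicates were used, and cysteines quantified in only one replicate were excluded.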

log2 ratio of iodoacetamide-alkyne labeling, inactive:
UniProt Q8WYQ9_C362 0.191, SMCR8 C644 (UniProt Q8TEV9) -0.0721, UniProt Q8NBJ5_C412 -0.0697, UniProt Q8TEJ3_C428 0.112, MICALL1 C597 (UniProt Q8N3F8) 0.402, GTF3C2 C608 (UniProt Q8WUA4) 0.15, WDR36 C866 (UniProt Q8NI36) 0.614, PAF1 C36 (UniProt Q8N7H5) 0.0746, UniProt Q8TDB4_C139 0.307, Q8V1_C158 0.469, MPP5 C490 (UniProt Q8N3R9) 0.0682, INTS1 C643 (UniProt Q8N201) 0.158, UniProt Q8TEJ3_C103 0.318, DMXL2 C1833 (UniProt Q8TDJ6) -0.0256, NOC3L C683 (UniProt Q8WTT2) 0.00677, EXOC6 C28 (UniProt Q8TAG9) 0.166, RAB2B C154 (UniProt Q8WUD1) 0.339, SEC14L1 C258 (UniProt Q92503) -0.138, PPHLN1 C309 (UniProt Q8NEY8) 0.2, DDX54 C73 (UniProt Q8TDD1) 0.3, NPLOC4 C188 (UniProt Q8TAT6) -0.022, BCL7C C211 (UniProt Q8WUZ0) 0.167, SERBP1 C11 (UniProt Q8NC51) 0.291, UniProt Q8N1G2_C9 0.611, LPCAT1 C216 (UniProt Q8NF37) -0.146, ZCCHC7 C524 (UniProt Q8N3Z6) 0.184, ASCC3 C742 (UniProt Q8N3C0) 0.35, GPT2 C477 (UniProt Q8TD30) 0.286, NPLOC4 C355 (UniProt Q8TAT6) -0.111, RDH13 C30 (UniProt Q8NBN7) 0.249, UniProt Q8WU20_C415 0.215, UniProt Q8NBU5_C310 -0.0517, WDR19 C1332 (UniProt Q8NEZ3) 0.317, UniProt Q8N6R0_C226 -0.0468, UniProt Q8N954_C95 0.385, UniProt Q8TDN6_C52 0.473, INTS1 C969 (UniProt Q8N201) 0.357
